## Primary screen of a compound library

The filed quantity is “Percent Effect” (%). How 0% and 100% were set is not recorded. Most values in the screen are low, and negative values occur. The compounds are a random part of those screened.

A: 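Whole-cell assay for inhibitors of Mycobacterium tuberculosis growth, labelled Cornell in the record; the read-out is not stated. The concentration is filed as 10 mM, unlikely as a test dose, so the dose is not known. Higher means stronger inhibition (inferred from two other growth screens of the library). Of about 53,000 compounds tested this way, about 900 (1.7%) reached 50% or more in at least one test.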
B: 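Assay on Mycobacterium tuberculosis, filed only as a heat shock assay from Cornell; the read-out is not stated. The concentration is filed as 10 mM, unlikely as a test dose, so the dose is not known. The record gives no direction; compounds that gave an IC50 in retests scored well above the rest, so higher reads as stronger inhibition. Of about 69,000 compounds tested this way, about 930 (1.4%) reached 50% or more in at least one test.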

{"structure": "CS(=O)(=O)c1ccc2c(c1)N(C(=O)c1cccc(F)c1)CCC2", "A": 21.34, "B": 12.94}
{"structure": "CCc1ccc(CN(CCN(C)C)Cc2ccc(C)s2)nc1", "A": 32.92, "B": 88.98}
{"structure": "CCc1ncc(CN2CCOC(Cc3cccc(F)c3)C2)cn1", "stereo": "stereo not shown", "B": 9.281}
{"structure": "CSCC(CCO)NC(=O)Nc1cc(C)ccc1C", "stereo": "stereo not shown", "A": -3.355, "B": 4.416}
{"structure": "COc1ccc(CN2CCOC[C@H]2c2nc(-c3ccncc3)c[nH]2)cc1", "A": 10.7, "B": -3.873}
{"structure": "O=C(c1cc(Cl)c2c(c1)OCCO2)N1CCCC(n2cncn2)C1", "stereo": "stereo not shown", "B": 3.585}
{"structure": "O=C(O)C(F)(F)F.O=C1CCCN1Cc1nnc2n1CCN(Cc1ccccn1)CC2", "A": 26.73, "B": -9.419}
{"structure": "CN(Cc1cc(C2CC2)[nH]n1)C(=O)c1ccccc1C1CCNC1", "stereo": "stereo not shown", "A": -13.73, "B": -26.13}
{"structure": "CCn1c(=O)nc2n1C(=O)N(c1cccc(Cl)c1)C2", "B": 29.08}
{"structure": "O=C(Nc1cnc2n1CCCC2)c1cccc(-n2cnnc2)c1", "A": -6.345, "B": -31.38}
{"structure": "CNc1ccnc(N2C[C@@H](C)[C@](O)(C3CC3)C2)n1", "A": 5.23, "B": -8.84}
{"structure": "CCN1CCN(C)C2(CCN(Cc3cccc(C)n3)CC2)C1=O.O=C(O)C(F)(F)F.O=C(O)C(F)(F)F", "B": 0.4088}
{"structure": "OC[C@@H](O)CN(CCC(F)(F)F)c1ncc(Cl)cn1", "B": -13.45}
{"structure": "NC(=O)c1cnc(NC(=O)CCc2ccco2)c(Cl)c1", "A": 18.74, "B": 1.29}
{"structure": "[H][C@@]12CCN(Cc3nc(C)cs3)C[C@@]1([H])O[C@@H](c1ccncn1)C2", "A": -3.352, "B": -14.76}
{"structure": "c1cn(Cc2nnc(C3CCN(C4CCOCC4)CC3)n2C2CC2)cn1", "A": 4.165, "B": 9.09}
{"structure": "CN(C)c1nc2c(c(N3CCC(O)CC3)n1)CN(CC1CCOC1)CC2", "stereo": "stereo not shown", "B": 2.927}
{"structure": "Cc1c(C2CCCN(C(=O)Cc3ccccn3)C2)n2c(nc1=O)CCC2.Cl", "stereo": "stereo not shown", "A": -1.922, "B": -6.101}
{"structure": "CN(C)C(C)(C)CNC(=O)C(C)(C)c1ccccc1F", "A": -1.088, "B": 97.79}
{"structure": "O=C(c1ccoc1)N1CCO[C@]2(CCC[C@@H]2COCc2ccncc2)C1", "A": -19.95, "B": -14.23}
{"structure": "CC(=O)N1CCCC(Cc2cncc(Br)c2)C1", "stereo": "stereo not shown", "A": 3.285, "B": -13.08}
{"structure": "CCCOc1ccc(Cl)cc1CNc1ncnc2oc(C)nc12", "A": 65.32, "B": 9.755}
{"structure": "Cc1nc(CN2CCCc3cc(OC(F)(F)F)ccc32)oc1C", "A": 34.88, "B": 2.668}
{"structure": "CC(C)(C)c1n[nH]c(C2CN(CCc3cccs3)CCO2)n1", "stereo": "stereo not shown", "B": -16.55}
{"structure": "O=C(NC1(C(=O)NC2CCCC2)CCCC1)c1ccc2[nH]ncc2c1", "B": 7.721}
{"structure": "O=C(C(CNCc1ccccn1)c1ccccc1)N1CCOCC1", "stereo": "stereo not shown", "A": -18, "B": -1.649}
{"structure": "O=C(CCNc1ncccn1)N1CCC(Nc2cccnn2)CC1", "A": -30.22, "B": -19.84}
{"structure": "CC(C)NC(=O)N1CCN(c2ccc(Cl)nn2)C(=O)C1", "B": -25.55}
{"structure": "CNC(=O)C1(C)CN(c2nc(C)cc(C)n2)CCO1", "stereo": "stereo not shown", "A": -25.3, "B": -31.43}
{"structure": "O=C(CCn1cc(Cl)cn1)N1CCCC(O)(CO)CC1", "stereo": "stereo not shown", "A": -9.729, "B": 5.373}

For reference, 2 entries once more:

structure	A	B
COc1ccc(CN2CCOC[C@H]2c2nc(-c3ccncc3)c[nH]2)cc1	10.7	-3.873
CCc1ccc(CN(CCN(C)C)Cc2ccc(C)s2)nc1	32.92	88.98

Data taken from ChEMBL document CHEMBL3988442, “University of Dundee, Small-Polar-MMV Screening Library” (2021).